From PMC12060747
No constants are given. Whether binding was seen depends on the method and setting. Binding seen in cells or lysates may run through a third protein.

Sequences of proteins named here, by UniProt entry; tags and fusion partners are left off.
UniProt P93002: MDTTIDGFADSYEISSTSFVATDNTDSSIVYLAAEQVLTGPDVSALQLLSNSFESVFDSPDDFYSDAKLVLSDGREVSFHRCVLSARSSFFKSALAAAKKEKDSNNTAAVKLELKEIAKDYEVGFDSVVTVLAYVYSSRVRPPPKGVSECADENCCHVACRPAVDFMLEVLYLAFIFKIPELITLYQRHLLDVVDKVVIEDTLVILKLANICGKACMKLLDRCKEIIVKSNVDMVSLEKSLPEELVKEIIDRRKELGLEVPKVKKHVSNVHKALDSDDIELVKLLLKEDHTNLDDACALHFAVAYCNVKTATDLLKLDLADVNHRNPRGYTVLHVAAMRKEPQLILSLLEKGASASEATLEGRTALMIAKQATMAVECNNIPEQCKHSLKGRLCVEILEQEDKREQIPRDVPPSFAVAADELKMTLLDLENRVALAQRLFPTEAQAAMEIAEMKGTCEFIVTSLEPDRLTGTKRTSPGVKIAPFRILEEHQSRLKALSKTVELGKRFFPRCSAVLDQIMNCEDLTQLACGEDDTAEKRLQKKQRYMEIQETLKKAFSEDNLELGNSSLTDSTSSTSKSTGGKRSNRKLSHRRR
UniProt P05804: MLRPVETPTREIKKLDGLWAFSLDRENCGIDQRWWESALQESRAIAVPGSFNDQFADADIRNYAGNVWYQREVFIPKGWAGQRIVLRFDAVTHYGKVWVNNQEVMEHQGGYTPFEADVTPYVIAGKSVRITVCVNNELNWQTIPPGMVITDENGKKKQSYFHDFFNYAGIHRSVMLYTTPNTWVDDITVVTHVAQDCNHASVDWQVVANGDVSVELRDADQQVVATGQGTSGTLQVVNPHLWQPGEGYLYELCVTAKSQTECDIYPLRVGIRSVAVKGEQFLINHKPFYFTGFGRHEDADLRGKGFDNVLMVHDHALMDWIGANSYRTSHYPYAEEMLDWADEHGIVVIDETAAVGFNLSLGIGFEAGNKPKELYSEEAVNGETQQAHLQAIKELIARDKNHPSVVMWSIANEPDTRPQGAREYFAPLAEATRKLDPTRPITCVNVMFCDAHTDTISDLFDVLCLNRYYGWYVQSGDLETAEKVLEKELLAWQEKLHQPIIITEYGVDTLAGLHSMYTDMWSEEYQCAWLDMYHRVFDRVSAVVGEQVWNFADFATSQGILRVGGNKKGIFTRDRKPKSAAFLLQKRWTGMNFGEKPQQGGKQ

Tests used:
[1] = target: NPR1 tagged with the N‐terminal portion of YFP (Arabidopsis thaliana) (UniProt P93002); experiment: split reporter; BiFC: YN‐ and YC‐tagged proteins under the CaMV 35S promoter, agroinfiltrated N. benthamiana leaves; confocal microscopy of epidermal cells at 2 dpi
[2] = target: YFP‐tagged NPR1 (Arabidopsis thaliana) (UniProt P93002); experiment: co-IP; YFP‐tagged bait and FLAG‐4×Myc‐tagged prey coexpressed in N. benthamiana leaves; GFP‐Trap agarose, 4°C for 3 h, IP buffer (50 mM Tris‐HCl pH7.5, 150 mM NaCl, 0.1% TritonX‐100, 0.1% NP‐40); blots with anti‐GFP and anti‐Myc

| Substance | binding [1] | binding [2] |
| --- | --- | --- |
| β‐glucuronidase (GUS), YC‐tagged (from UniProt P05804 1-603) (enzyme) | no binding | – |
| FLAG‐4×Myc‐tagged GUS (from UniProt P05804 1-603) (enzyme) | – | no binding |
